Residue numbers refer to the chain shown, from its start. This is one part of the list.

Common to all, as to conditions: yeast three-hybrid, YBZ-1, SC-Leu-His + 0.5 mM 3-AT, 4 days
Experiment [1] has as its target T1, PUM1 PUF domain R3-FRD C935F + Q939D (Homo sapiens) (UniProt Q14671).
T1 sequence: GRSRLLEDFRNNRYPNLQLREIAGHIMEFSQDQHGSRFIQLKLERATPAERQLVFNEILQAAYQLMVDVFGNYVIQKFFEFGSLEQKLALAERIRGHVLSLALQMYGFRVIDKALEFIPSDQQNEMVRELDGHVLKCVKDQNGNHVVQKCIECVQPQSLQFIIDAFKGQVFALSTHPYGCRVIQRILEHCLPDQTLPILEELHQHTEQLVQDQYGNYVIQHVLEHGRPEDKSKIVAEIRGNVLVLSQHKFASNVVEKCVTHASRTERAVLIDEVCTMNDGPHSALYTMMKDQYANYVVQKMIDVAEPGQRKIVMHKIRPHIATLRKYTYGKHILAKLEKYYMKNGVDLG

Experiment [2] concerns the target T2, PUM1 PUF domain R3-LNS C935L + R936N + Q939S (Homo sapiens) (UniProt Q14671).
T2 sequence: T1 sequence with F108L, R109N, D112S

In experiment [3] the target is T3, PUM1 PUF domain R3-QRA C935Q + Q939A (Homo sapiens) (UniProt Q14671).
T3 sequence: T1 sequence with F108Q, D112A

In experiment [4] the target is T4, PUM1 PUF domain R3-RSP C935R + R936S + Q939P (Homo sapiens) (UniProt Q14671).
T4 sequence: T1 sequence with F108R, R109S, D112P

The target of experiment [5] is T5, PUM1 PUF domain R3-WFG C935W + R936F + Q939G (Homo sapiens) (UniProt Q14671).
T5 sequence: T1 sequence with F108W, R109F, D112G

Experiment [6] addresses T6, PUM1 PUF domain R3-WWD C935W + R936W + Q939D (Homo sapiens) (UniProt Q14671).
T6 sequence: T1 sequence with F108W, R109W

Experiment [7] addresses T7, PUM1 PUF domain R4-ANA N971A + H972N + Q975A (Homo sapiens) (UniProt Q14671).
T7 sequence: T1 sequence with F108C, D112Q, N144A, H145N, Q148A

Experiment [8] deals with T8, PUM1 PUF domain R4-APR N971A + H972P + Q975R (Homo sapiens) (UniProt Q14671).
T8 sequence: T1 sequence with F108C, D112Q, N144A, H145P, Q148R

The target of experiment [9] is T9, PUM1 PUF domain R4-CPC N971C + H972P + Q975C (Homo sapiens) (UniProt Q14671).
T9 sequence: T1 sequence with F108C, D112Q, N144C, H145P, Q148C

In experiment [10] the target is T10, PUM1 PUF domain R4-DFR N971D + H972F + Q975R (Homo sapiens) (UniProt Q14671).
T10 sequence: T1 sequence with F108C, D112Q, N144D, H145F, Q148R

Experiment [11] has as its target T11, PUM1 PUF domain R4-DHR N971D + Q975R (Homo sapiens) (UniProt Q14671).
T11 sequence: T1 sequence with F108C, D112Q, N144D, Q148R

Experiment [12] has as its target T12, PUM1 PUF domain R4-HNL N971H + H972N + Q975L (Homo sapiens) (UniProt Q14671).
T12 sequence: T1 sequence with F108C, D112Q, N144H, H145N, Q148L

Experiment [13] has as its target T13, PUM1 PUF domain R4-LFW N971L + H972F + Q975W (Homo sapiens) (UniProt Q14671).
T13 sequence: T1 sequence with F108C, D112Q, N144L, H145F, Q148W

Experiment [14] deals with T14, PUM1 PUF domain R4-LHR N971L + Q975R (Homo sapiens) (UniProt Q14671).
T14 sequence: T1 sequence with F108C, D112Q, N144L, Q148R

Experiment [15] concerns the target T15, PUM1 PUF domain R4-QGG N971Q + H972G + Q975G (Homo sapiens) (UniProt Q14671).
T15 sequence: T1 sequence with F108C, D112Q, N144Q, H145G, Q148G

For experiment [16], the target named is T16, PUM1 PUF domain R4-SNF N971S + H972N + Q975F (Homo sapiens) (UniProt Q14671).
T16 sequence: T1 sequence with F108C, D112Q, N144S, H145N, Q148F

Experiment [17] has as its target T17, PUM1 PUF domain R4-SPR N971S + H972P + Q975R (Homo sapiens) (UniProt Q14671).
T17 sequence: T1 sequence with F108C, D112Q, N144S, H145P, Q148R

For experiment [18], the target named is T18, PUM1 PUF domain R4-SQR N971S + H972Q + Q975R (Homo sapiens) (UniProt Q14671).
T18 sequence: T1 sequence with F108C, D112Q, N144S, H145Q, Q148R

In experiment [19] the target is T19, PUM1 PUF domain R4-TNG N971T + H972N + Q975G (Homo sapiens) (UniProt Q14671).
T19 sequence: T1 sequence with F108C, D112Q, N144T, H145N, Q148G

In experiment [20] the target is T20, PUM1 PUF domain R4-WSR N971W + H972S + Q975R (Homo sapiens) (UniProt Q14671).
T20 sequence: T1 sequence with F108C, D112Q, N144W, H145S, Q148R

Consider “GGCUAGAACUAGUGGAUCCCCCGGCGCCCGGCGGCUCGAGCCCGGGUAAGUGUAAAUAGUCUGCAUGCCGCCGGGCGCCAUGCCUGCAGGUCGACUCUAGAAAACAUG”, for which the binding signal (log2 enrichment (interaction score)) in experiment [1] is -3.6; in experiment [2], -3.43; in [3], -3.09; in experiment [4], -2.99; in experiment [5], -4.86; in experiment [6], -3.61. The binding signal (log2 enrichment (interaction score)) in experiment [7] is 0.46; in experiment [8], -0.01; in experiment [9], 0.42; in [10], 0.04; in [11], 0.04; in [12], 0.04. The binding signal (log2 enrichment (interaction score)) in [13] is 0.4; in experiment [14], 0.5; in experiment [15], -0.04; in experiment [16], -1.14; in experiment [17], 0.15; in [18], -3.87. In addition, the binding signal (log2 enrichment (interaction score)) was -0.08 in experiment [19] and 0.55 in experiment [20].

Values taken from article PMC8384837.
